Source: the supplement of paper PMC6411743
± gives the standard deviation of the averaged measurements. The entries are a selection whose mix differs from that of the whole data set. Small differences around the control level are noise.

Sequences of proteins named here, by UniProt entry; tags and fusion partners are left off. A change or cut given only in a name is not applied to a line headed by its entry.
UniProt Q02086: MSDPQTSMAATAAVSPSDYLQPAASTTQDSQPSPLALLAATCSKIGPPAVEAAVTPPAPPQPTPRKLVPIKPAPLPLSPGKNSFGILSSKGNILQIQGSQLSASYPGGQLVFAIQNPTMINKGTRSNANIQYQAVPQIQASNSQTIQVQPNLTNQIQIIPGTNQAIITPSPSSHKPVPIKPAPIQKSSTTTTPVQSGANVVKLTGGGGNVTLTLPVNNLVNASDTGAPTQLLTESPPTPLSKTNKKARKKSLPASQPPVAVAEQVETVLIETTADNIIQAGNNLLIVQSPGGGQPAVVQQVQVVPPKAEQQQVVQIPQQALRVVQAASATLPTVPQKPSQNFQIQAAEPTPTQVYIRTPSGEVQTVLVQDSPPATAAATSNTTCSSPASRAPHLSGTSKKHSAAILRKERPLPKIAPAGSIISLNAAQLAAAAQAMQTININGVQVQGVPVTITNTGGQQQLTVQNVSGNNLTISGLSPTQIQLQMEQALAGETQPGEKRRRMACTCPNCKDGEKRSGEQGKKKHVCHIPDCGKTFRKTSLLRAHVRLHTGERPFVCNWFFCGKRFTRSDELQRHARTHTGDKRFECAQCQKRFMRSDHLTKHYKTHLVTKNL
UniProt P61244, whole entry: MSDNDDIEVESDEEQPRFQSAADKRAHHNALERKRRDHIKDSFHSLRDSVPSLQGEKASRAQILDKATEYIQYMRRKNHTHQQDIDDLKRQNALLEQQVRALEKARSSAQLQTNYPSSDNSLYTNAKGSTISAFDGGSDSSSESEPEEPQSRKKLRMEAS
UniProt P60174, whole entry: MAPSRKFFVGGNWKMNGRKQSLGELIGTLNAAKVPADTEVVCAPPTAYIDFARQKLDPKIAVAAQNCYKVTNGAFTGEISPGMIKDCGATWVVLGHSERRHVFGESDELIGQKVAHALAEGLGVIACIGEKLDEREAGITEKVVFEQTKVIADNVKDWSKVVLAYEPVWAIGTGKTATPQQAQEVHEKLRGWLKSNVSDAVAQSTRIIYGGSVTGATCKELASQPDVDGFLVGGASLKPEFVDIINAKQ
UniProt Q01196, whole entry: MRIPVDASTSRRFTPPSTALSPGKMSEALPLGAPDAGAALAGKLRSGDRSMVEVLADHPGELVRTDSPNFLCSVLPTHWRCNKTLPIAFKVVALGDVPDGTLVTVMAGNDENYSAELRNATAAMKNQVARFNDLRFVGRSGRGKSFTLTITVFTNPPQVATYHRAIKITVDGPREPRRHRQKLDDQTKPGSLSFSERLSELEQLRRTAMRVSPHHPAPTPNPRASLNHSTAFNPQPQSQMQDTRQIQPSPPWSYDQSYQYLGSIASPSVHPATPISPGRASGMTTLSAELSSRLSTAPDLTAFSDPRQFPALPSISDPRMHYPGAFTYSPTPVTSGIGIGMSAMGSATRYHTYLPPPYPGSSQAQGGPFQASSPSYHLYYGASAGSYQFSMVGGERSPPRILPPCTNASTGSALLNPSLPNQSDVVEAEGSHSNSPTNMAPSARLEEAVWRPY
UniProt Q01826: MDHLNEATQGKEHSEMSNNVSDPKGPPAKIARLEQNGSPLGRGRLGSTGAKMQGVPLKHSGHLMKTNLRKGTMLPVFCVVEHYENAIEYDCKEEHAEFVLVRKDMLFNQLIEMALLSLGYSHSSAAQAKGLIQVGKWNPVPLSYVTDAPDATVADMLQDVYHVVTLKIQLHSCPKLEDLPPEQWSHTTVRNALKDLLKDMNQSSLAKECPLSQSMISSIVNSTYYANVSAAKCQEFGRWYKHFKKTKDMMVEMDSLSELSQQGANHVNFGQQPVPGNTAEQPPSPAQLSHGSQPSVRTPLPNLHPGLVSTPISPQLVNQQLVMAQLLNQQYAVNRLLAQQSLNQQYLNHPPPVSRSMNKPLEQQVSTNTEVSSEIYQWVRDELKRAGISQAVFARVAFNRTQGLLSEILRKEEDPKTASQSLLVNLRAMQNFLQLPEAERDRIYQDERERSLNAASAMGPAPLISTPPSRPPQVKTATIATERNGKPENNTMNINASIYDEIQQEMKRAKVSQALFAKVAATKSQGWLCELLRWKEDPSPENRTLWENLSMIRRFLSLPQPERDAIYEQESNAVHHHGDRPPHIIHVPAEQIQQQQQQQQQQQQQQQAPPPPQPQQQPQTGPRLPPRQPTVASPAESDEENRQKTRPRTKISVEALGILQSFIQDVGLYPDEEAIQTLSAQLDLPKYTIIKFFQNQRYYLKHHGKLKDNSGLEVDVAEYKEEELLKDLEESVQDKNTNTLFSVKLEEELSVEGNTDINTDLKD
UniProt P58546, whole entry: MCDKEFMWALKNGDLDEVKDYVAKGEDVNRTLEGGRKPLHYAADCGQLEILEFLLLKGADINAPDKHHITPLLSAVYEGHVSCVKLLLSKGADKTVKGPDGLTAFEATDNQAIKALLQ
UniProt Q06609, whole entry: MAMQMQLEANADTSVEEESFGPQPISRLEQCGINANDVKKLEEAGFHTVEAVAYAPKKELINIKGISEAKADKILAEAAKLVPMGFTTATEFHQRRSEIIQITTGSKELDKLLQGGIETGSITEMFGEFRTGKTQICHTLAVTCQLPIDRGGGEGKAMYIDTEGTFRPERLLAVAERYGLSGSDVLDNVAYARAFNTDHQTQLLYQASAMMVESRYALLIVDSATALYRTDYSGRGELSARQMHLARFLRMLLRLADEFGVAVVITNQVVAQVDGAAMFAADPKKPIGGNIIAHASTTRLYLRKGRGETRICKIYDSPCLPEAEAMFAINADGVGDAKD
UniProt P60604: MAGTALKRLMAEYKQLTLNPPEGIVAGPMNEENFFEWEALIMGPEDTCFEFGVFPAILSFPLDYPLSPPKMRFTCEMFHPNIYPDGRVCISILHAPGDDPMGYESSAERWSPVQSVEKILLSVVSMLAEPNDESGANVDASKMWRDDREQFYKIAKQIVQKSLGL
UniProt Q07820, whole entry: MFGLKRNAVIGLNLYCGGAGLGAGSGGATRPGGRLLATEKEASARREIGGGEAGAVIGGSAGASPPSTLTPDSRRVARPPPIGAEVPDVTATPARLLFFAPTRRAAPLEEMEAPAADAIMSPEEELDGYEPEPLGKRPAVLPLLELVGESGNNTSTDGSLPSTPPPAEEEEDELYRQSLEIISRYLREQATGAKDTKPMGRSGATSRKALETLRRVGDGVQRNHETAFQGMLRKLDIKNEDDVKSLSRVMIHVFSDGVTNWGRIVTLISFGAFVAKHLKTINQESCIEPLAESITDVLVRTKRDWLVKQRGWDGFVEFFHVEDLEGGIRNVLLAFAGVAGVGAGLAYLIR
UniProt P62942, whole entry: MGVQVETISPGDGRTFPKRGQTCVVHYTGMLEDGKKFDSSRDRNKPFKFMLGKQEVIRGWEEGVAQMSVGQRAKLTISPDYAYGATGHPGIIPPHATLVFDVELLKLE
UniProt Q08257: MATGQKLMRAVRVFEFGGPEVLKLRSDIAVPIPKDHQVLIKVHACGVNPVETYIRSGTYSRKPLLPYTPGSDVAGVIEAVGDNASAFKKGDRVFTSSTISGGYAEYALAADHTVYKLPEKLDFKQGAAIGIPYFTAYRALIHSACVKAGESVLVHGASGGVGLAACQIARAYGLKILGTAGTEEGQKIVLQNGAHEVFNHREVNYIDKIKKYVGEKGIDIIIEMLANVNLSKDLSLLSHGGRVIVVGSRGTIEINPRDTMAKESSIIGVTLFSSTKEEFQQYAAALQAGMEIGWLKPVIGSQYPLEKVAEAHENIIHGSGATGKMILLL
UniProt P62877, whole entry, looked up: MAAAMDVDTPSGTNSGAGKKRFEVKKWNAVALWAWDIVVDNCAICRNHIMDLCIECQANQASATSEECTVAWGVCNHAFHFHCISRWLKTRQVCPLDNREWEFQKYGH
UniProt Q06136: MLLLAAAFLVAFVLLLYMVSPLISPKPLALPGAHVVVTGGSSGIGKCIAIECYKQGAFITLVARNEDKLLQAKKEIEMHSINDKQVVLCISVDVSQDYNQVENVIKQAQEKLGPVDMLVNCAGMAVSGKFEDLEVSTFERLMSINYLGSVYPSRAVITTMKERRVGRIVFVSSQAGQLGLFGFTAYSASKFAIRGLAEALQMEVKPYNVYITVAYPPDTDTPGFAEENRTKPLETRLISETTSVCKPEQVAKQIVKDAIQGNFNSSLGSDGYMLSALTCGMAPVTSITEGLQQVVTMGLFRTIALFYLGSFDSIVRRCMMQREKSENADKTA
UniProt P62633: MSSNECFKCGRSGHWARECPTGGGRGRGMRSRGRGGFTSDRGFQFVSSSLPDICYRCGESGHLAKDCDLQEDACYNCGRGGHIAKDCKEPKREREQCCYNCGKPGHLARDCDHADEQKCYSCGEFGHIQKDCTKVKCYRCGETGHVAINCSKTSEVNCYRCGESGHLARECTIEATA
UniProt P57772: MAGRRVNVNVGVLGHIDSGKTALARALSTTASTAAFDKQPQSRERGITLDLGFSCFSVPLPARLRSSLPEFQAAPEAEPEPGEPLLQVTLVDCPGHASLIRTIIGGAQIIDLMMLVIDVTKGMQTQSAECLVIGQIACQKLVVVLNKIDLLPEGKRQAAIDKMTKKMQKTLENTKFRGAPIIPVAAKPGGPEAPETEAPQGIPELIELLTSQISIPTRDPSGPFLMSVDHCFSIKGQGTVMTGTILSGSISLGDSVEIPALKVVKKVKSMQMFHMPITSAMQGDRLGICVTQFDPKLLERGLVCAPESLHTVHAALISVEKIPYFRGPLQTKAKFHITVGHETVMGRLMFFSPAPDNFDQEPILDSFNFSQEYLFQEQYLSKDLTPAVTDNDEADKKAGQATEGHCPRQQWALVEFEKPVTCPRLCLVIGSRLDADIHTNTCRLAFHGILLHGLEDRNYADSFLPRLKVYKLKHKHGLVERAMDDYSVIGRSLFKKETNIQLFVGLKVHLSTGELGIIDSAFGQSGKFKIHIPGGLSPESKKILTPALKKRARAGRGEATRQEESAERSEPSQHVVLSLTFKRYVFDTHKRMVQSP
UniProt P56524: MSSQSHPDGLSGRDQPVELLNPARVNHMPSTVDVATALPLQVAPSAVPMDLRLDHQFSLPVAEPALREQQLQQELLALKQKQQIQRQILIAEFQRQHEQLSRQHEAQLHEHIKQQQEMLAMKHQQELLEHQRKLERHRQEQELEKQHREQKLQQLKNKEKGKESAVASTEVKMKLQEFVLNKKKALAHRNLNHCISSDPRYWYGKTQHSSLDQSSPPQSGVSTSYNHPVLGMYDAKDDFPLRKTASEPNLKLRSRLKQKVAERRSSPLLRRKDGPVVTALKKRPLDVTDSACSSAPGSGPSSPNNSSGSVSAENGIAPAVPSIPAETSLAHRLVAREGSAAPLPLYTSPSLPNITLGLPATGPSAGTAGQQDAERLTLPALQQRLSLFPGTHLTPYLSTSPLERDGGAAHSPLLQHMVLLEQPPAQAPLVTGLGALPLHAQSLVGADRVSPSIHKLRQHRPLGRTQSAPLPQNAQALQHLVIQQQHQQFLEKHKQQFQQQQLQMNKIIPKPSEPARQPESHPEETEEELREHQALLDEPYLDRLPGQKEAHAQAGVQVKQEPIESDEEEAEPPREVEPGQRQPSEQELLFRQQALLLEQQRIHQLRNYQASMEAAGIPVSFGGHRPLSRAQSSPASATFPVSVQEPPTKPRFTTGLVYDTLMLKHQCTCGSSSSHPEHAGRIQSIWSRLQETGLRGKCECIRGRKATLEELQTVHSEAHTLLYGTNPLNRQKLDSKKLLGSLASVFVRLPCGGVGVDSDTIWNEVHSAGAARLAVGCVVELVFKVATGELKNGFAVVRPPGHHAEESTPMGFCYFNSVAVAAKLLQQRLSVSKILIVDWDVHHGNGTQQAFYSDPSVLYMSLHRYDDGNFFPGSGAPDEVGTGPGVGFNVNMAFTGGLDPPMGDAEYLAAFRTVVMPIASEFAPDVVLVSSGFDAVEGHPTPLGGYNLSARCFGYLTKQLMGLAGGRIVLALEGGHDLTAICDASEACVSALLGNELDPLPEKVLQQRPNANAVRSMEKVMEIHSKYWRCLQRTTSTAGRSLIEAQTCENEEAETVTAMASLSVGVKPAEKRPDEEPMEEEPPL
UniProt Q06546: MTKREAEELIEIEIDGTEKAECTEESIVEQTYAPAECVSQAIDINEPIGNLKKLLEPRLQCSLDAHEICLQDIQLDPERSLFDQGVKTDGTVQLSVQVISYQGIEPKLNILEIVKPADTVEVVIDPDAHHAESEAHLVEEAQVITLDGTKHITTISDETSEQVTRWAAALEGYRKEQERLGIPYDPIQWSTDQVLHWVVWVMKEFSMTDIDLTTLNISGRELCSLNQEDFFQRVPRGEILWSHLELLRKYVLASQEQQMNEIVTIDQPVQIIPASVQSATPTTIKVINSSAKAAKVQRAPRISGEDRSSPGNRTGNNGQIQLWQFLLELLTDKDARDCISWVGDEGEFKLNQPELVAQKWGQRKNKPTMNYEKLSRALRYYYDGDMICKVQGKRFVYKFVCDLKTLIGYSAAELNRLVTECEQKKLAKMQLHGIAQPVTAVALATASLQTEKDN
UniProt P61968: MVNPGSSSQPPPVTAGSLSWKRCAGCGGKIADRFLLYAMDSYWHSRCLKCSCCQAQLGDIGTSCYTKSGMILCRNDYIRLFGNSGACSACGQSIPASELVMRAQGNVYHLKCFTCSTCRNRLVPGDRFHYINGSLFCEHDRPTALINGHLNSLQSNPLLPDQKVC

Compound: Nc1ncnc2c1ncn2[C@@H]1O[C@H](COP(=O)(O)OP(=O)(O)NP(=O)(O)O)[C@@H](O)[C@H]1O [adenylyl imidodiphosphate]
Experiment: NP40-soluble protein abundance relative to vehicle (solubility fold change) (ratio); higher = more soluble protein in presence of AMP-PNP
Summary of the method: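 Crude Jurkat lysate, prepared by Dounce homogenisation, was exposed to eight concentrations from 0.1 to 10 mM for 10 min at room temperature and then 3 min at 37 °C. Solubilisation used 0.8% NP40 with benzonase for 60 min at 4 °C, followed by ultracentrifugation and TMT labelling of the supernatant for LC-MS/MS. After vsn normalisation of intensities, each value is the fold change against the detergent-processed vehicle within each replicate, across three independent experiments.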

Target	NP40-soluble protein abundance (concentration: 0.1mM)	NP40-soluble protein abundance (concentration: 0.5mM)
UniProt P61254	1.07 ± 0.017	1.07 ± 0.057
UniProt Q02086 and related entries	1 ± 0.023	1.01 ± 0.013
UniProt P78527	1.08 ± 0.054	1.03 ± 0.14
UniProt Q06547 and related entries	0.986 ± 0.022	0.994 ± 0.068
UniProt P62277	1.04 ± 0.054	1 ± 0.068
UniProt P61244 and related entries	0.941 ± 0.058	0.921 ± 0.087
UniProt P62495	0.989 ± 0.033	0.98 ± 0.063
UniProt Q08170	1.03 ± 0.043	1.01 ± 0.031
UniProt Q02535	0.9759 ± 0.007	0.989 ± 0.012
UniProt P68104 and related entries	0.997 ± 0.04	0.978 ± 0.01
UniProt P56937 and related entries	1.01 ± 0.039	0.999 ± 0.026
UniProt P60174 and related entries	0.984 ± 0.018	1.02 ± 0.055
UniProt P78310 and related entries	1.02 ± 0.013	1.07 ± 0.035
PRKCQ (UniProt Q04759)	1.04 ± 0.054	1.03 ± 0.052
UniProt Q01196-11|Q01196-8|Q01196 and related entries	0.993 ± 0.037	1.01 ± 0.038
PFKP (UniProt Q01813)	1.01 ± 0.026	1.016 ± 0.0077
UniProt Q01826 and related entries	1 ± 0.031	1.02 ± 0.04
UniProt P56381	1 ± 0.035	1.05 ± 0.16
UniProt P62913 and related entries	1.03 ± 0.044	1.04 ± 0.051
UniProt P84022	1 ± 0.016	1.03 ± 0.028
MTPN (UniProt P58546)	0.919 ± 0.033	0.984 ± 0.11
UniProt P80217 and related entries	0.961 ± 0.043	1 ± 0.041

Target	NP40-soluble protein abundance (concentration: 0.1mM)	NP40-soluble protein abundance (concentration: 0.5mM)
UniProt Q06609 and related entries	1.019 ± 0.0072	1.01 ± 0.029
MRPS35 (UniProt P82673)	1.03 ± 0.042	1.04 ± 0.069
UniProt P60604 and related entries	1.03 ± 0.055	1.04 ± 0.047
UniProt P63220 and related entries	1.03 ± 0.04	1 ± 0.073
PAFAH1B2 (UniProt P68402)	0.971 ± 0.013	1 ± 0.032
UniProt P62241 and related entries	1.02 ± 0.032	0.992 ± 0.044
UniProt Q07820 and related entries	1.01 ± 0.02	0.974 ± 0.019
UniProt P63000 and related entries	0.964 ± 0.046	1.01 ± 0.029
ACTR3 (UniProt P61158)	1.04 ± 0.022	1.01 ± 0.074
UniProt P63092 and related entries	1.01 ± 0.046	0.995 ± 0.029
FKBP1A (UniProt P62942)	1 ± 0.026	1.03 ± 0.066
UniProt P61956	1 ± 0.012	1.05 ± 0.013
HNRNPH2 (UniProt P55795)	0.9975 ± 0.0027	1.01 ± 0.04
CRYZ (UniProt Q08257)	1.02 ± 0.04	0.996 ± 0.051
UniProt P62877	0.984 ± 0.034	1.03 ± 0.033
UniProt Q06136 and related entries	0.997 ± 0.042	1.01 ± 0.042
MRPS15 (UniProt P82914)	1.01 ± 0.012	0.996 ± 0.016
UniProt P62995 and related entries	1.03 ± 0.065	1.04 ± 0.092
UniProt P62857	1.02 ± 0.052	0.992 ± 0.081
STX17 (UniProt P56962)	1.01 ± 0.023	0.997 ± 0.052
UniProt P61106	1.01 ± 0.067	1.05 ± 0.031
HMGCS1 (UniProt Q01581)	0.982 ± 0.023	0.974 ± 0.021

As a working copy, some entries already given:
Target	NP40-soluble protein abundance (concentration: 0.1mM)	NP40-soluble protein abundance (concentration: 0.5mM)
UniProt P63092 and related entries	1.01 ± 0.046	0.995 ± 0.029
FKBP1A (UniProt P62942)	1 ± 0.026	1.03 ± 0.066
UniProt P61956	1 ± 0.012	1.05 ± 0.013

Remaining list, next part

Target	NP40-soluble protein abundance (concentration: 0.1mM)	NP40-soluble protein abundance (concentration: 0.5mM)
RPP38 (UniProt P78345)	0.995 ± 0.052	0.985 ± 0.096
CDK6 (UniProt Q00534)	0.992 ± 0.014	0.9923 ± 0.0095
UniProt Q06787 and related entries	0.975 ± 0.024	1.01 ± 0.015
UniProt Q02809 and related entries	1.035 ± 0.0024	1.02 ± 0.016
RPL6 (UniProt Q02878)	1.03 ± 0.028	1.01 ± 0.081
UniProt P57081 and related entries	0.964 ± 0.029	0.9879 ± 0.0073
MARS (UniProt P56192)	1.01 ± 0.032	1 ± 0.053
UniProt P62633 and related entries	0.982 ± 0.033	1 ± 0.039
UniProt P63167	1.01 ± 0.06	1.08 ± 0.058
UniProt P83876	0.991 ± 0.023	0.998 ± 0.016
EEFSEC (UniProt P57772)	0.987 ± 0.027	0.997 ± 0.025
CDR2 (UniProt Q01850)	0.975 ± 0.029	0.962 ± 0.011
LRP1 (UniProt Q07954)	0.975 ± 0.014	0.966 ± 0.027
UniProt P63279	1.03 ± 0.12	1.08 ± 0.1
HDAC4 (UniProt P56524)	0.983 ± 0.026	0.981 ± 0.051
RPS27A (UniProt P62979)	1 ± 0.065	1.01 ± 0.025
UniProt P62829	1.01 ± 0.017	1.008 ± 0.008
YBX1 (UniProt P67809)	0.976 ± 0.11	1.08 ± 0.29
GABPA (UniProt Q06546)	0.958 ± 0.033	1.01 ± 0.035
LMO4 (UniProt P61968)	0.999 ± 0.046	1 ± 0.035
UniProt Q08209 and related entries	1.02 ± 0.014	1.02 ± 0.032
KHDRBS1 (UniProt Q07666)	1.03 ± 0.038	1.04 ± 0.068
